Data: US20050048512A1 (published 2005)
Values joined by “and” are separate entries in the source; they are usually repeats but may differ in a detail not shown here. Equal values may be shown once.

Experiments:
[1] = target: CD28 on human PBMC (human, UniProt P10747 19-220); assay: cell-based or functional assay
[2] = target: CD28 on monkey PBMC (monkey (cynomolgus), UniProt Q0PDN3 19-220); assay: cell-based or functional assay
[3] = target: T1, CD28 (UniProt P10747 19-152, limits assumed); assay: Biacore, CD28 on CM5 chip, 0.5 and 5 uM protein in flow
T1 construct: Purified CD28 immobilized by NHS/EDC coupling (Biacore) or hydrophobic adsorption (ELISA); also called target protein CD28

[4] = target: T1, CD28; assay: ELISA, 10 ng CD28 per well, serial dilutions of protein, anti-HA-HRP detection
[5] = target: T2, CD20 on Raji or Daudi cells (UniProt P11836 1-297, limits assumed); assay: phage clone on Raji or Daudi cells with or without 1 mg/mL Rituxan
T2 construct: whole, on cells
T2 sequence (looked up): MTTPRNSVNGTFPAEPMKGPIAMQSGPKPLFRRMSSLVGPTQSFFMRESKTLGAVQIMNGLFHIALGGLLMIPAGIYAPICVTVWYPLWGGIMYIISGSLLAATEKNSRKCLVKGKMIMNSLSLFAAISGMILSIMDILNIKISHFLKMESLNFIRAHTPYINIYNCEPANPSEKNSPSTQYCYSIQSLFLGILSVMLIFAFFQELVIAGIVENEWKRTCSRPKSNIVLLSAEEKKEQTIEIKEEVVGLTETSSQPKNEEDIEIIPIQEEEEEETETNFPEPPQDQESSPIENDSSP

B1: CD28-A7 (designed binder)
chain: CGPGRFQCESGQCIPATWVCDGENDCVDDSDEKSCATTAPTCGSGQFRCSNGNCLPLRLGCDGVDDCGDSSDEPLDPCAATVRT
notes: LDL receptor A-domain dimer; also called CD28 7; CD28 dimer clone 7
IC50, PBMC assay on human cells (3H thymidine incorporation) [1]: 2 nM and 14 ng/ml | IC50, PBMC assay on monkey cells (3H thymidine incorporation) [2]: 2 nM | Kd [3]: 110 nM | ELISA (column head; quantity not named) [4]: 1.2e-06

CRSGEFKCHGTRPCVPQRWVCDGDDDCVDGSDEKSCETPARR (designed binder) [CD20 binding sequence 6 (first listed)]
binding result [5]: binds
